{"source": "patent US4198506A", "about": "“2-Carboxyalkyl-2,3-dihydro-6-mercapto-s-triazolo[4,3-b]-pyridazin-3-ones” (Bristol-Myers Company, priority 1979, dated 1980)", "system": "51 gram-positive and 96 gram-negative bacteria", "experiment": "In vitro activity against 147 test organisms (overall comparison)", "type": "cell-based", "procedure": "The MIC's were determined by the serial dilution method using Mueller-Hinton agar against 51 gram-positive and 96 gram-negative bacteria. The 147 test organisms were classified into 16 groups according to the genera and the types of antibiotic resistance, 5 groups for gram-positive and 11 for gram-negative bacteria.", "note": "At least one compound was matched to its structure with a doubt left.", "data": [{"smiles": "CNCc1ccccc1CC(=O)N[C@@H]1C(=O)N2C(C(=O)O)=C(CSc3ccc4nn(CC(=O)O)c(=O)n4n3)CS[C@H]12", "note": "[BB-S479, 7-[o-(Methylaminomethyl)phenylacetamido]-3-(2-carboxymethyl-2,3-dihydro-s-triazolo[4,3-b]pyridazin-3-on-6-ylthiomethyl)-3-cephem-4-carboxylic Acid]", "values": [{"measurement": "overall in vitro activity vs. non-N-methylated analogs", "setting": "compared with BB-S483 and BB-S469, respectively", "value": "better overall activity than their non-N-methylated analogs"}, {"measurement": "in vitro activity vs. BB-S472", "setting": "gram-negative bacteria", "value": "superior to BB-S472 in some species of gram-negative bacteria"}, {"measurement": "in vitro activity compared with cefamandole", "setting": "most of the test organisms", "value": "more active against most of the test organisms except against Providencia species and Staphylococci"}]}]}
